Reference: paper PMC6691116
Results are given in words; binding and its absence hold for the method and conditions named. In cells and extracts the contact can be indirect. Some results given as binding are weak or reduced against the parent protein; the word gives no strength.

Amino acid sequences for entries named in this document (tags omitted).
UniProt Q00987: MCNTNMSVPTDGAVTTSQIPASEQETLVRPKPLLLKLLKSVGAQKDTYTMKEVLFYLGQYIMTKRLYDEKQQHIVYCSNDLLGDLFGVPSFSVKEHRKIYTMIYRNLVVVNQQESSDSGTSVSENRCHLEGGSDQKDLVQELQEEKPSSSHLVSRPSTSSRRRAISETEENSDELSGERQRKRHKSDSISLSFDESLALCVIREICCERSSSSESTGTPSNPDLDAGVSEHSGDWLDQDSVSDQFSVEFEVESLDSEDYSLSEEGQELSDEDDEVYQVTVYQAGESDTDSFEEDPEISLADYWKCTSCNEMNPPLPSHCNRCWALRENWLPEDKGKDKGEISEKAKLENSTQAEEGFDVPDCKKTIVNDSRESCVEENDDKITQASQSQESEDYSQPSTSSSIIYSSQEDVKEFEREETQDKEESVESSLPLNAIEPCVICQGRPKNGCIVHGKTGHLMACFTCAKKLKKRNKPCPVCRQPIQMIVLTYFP
UniProt P06748: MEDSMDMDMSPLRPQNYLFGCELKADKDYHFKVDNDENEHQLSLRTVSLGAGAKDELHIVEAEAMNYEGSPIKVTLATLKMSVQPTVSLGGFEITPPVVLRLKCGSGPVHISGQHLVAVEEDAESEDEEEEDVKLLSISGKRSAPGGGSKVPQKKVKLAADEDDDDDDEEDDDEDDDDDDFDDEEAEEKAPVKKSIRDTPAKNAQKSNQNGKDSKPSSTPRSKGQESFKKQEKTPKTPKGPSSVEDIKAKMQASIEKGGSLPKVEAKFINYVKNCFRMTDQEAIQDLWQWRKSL

Tests used:
GST-HDM2 (human) = GST-HDM2 (human) (UniProt Q00987); experiment: pull-down
[1] = biological target: HDM2 (human (endogenous in L02)) (UniProt Q00987); experiment: co-IP

binding (GST-HDM2 (human))	binding [1]	Substance
binds	–	His-NPM1 (from UniProt P06748 1-294)
–	binds	NPM1 (from UniProt P06748 1-294)
